Assay results: article PMC6861704
Substitutions are numbered along the chain they refer to. Results are given in words; binding and its absence hold for the method and conditions named. In cells and extracts the contact can be indirect. Some binding calls cover weakened binding; strength is not graded here. Tags and fused reporters may be left off the sequences shown.

The chains behind the UniProt entries cited, without tags or fusion partners.
UniProt P25694: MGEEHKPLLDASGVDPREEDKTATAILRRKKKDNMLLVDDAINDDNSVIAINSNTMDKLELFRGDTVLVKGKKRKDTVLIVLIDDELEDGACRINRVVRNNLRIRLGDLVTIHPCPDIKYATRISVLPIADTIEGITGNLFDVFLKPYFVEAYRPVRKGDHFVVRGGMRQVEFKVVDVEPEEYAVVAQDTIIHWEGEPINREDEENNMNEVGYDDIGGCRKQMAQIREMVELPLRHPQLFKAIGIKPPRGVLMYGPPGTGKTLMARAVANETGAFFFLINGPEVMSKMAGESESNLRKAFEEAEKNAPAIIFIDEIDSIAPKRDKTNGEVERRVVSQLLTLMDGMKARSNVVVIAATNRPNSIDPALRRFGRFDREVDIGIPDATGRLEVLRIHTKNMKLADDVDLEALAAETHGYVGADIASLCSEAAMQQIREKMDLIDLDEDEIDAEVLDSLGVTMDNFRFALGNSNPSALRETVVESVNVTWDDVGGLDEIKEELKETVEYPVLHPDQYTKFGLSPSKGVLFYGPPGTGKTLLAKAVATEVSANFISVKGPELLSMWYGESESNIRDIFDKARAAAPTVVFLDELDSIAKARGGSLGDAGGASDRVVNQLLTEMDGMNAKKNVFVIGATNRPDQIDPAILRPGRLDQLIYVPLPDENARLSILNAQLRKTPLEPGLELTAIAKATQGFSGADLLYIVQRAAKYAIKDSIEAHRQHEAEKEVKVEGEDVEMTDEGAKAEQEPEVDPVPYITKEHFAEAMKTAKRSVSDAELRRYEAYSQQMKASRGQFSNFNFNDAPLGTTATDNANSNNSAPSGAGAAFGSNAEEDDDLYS

How the values were obtained:
Assay in all cases: co-IP; HA-Fzo1 variants expressed in Δfzo1 cells; crude membrane fraction solubilized with 0.2% NG310 in TBS; HA-Fzo1 immunoprecipitated overnight at 4°C (methods name Flag-coupled beads); washed with 0.2% NG310 in TBS; blots with HA- and Cdc48-specific antibodies
[1] = target: T1, HA-Fzo1 (wild type) (S. cerevisiae) (UniProt P38297)
T1 sequence: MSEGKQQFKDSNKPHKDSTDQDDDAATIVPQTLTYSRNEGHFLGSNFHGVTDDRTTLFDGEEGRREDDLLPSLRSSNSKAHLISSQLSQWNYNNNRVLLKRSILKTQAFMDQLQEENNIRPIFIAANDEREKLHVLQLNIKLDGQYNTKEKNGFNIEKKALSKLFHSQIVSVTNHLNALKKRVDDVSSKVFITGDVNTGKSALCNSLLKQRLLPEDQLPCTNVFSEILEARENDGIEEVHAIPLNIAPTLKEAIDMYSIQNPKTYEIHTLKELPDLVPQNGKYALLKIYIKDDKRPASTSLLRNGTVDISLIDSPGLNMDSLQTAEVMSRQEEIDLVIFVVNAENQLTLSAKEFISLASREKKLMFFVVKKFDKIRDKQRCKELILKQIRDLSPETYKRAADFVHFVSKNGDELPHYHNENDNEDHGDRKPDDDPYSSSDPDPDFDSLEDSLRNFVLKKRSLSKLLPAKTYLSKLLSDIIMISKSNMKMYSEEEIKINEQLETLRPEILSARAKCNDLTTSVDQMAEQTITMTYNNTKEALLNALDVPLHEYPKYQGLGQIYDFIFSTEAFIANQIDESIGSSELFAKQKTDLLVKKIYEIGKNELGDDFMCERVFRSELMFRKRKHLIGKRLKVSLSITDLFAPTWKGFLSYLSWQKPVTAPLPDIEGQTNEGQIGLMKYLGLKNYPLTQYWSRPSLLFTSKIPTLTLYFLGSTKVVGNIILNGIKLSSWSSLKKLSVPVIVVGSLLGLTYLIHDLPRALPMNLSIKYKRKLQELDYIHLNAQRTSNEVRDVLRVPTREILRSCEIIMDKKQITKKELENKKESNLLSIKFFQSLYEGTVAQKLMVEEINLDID

[2] = target: T2, HA-Fzo1^R182E;D335K;K464D (S. cerevisiae) (UniProt P38297)
T2 sequence: T1 sequence with R182E, D335K, K464D

[3] = target: T3, HA-Fzo1^K464R (S. cerevisiae) (UniProt P38297)
T3 sequence: T1 sequence with K464R

binding [1]: binds | binding [2]: binds | binding [3]: no binding
Substance: Cdc48 (from UniProt P25694 1-835)
